# Experimental data from US20050220906A1, “Pharmaceutical composition for treating rheumatism and the preparation thereof” (priority 2002, published 2005).
# Tested on: acetic acid-induced twisting reaction
# Assay: Acetic acid-induced twisting reaction
# Format: in vivo, Kuming mice
# Settings: 10 mg/kg
smiles,measurement,setting,value
CN1CC[C@]23c4c5ccc(O)c4O[C@H]2[C@@H](O)C=C[C@H]3[C@H]1C5.Cl [morphine hydrochloride],Latent time,,0.00 ± 0.00 min
same,Twisting times,in 20 minutes,0.0 ± 0.0
